Patent publication US12053470B2, “Pharmaceutical combination comprising an ALK inhibitor and a SHP2 inhibitor” (Novartis AG, priority 2017, dated 2024)
The name of at least one read-out is uncertain.

System: Ceritinib resistant MGH049 cells
Assay: Cell colony formation assay with ceritinib resistant MGH049 cells;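 further: tested compounds are SHP2 inhibitors given alone, colonies fixed and crystal violet stained, DMSO reference taken as the mean of six readings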
Type: cell-based, human
Details: compound of Table 1 (3 μM) combined with ceritinib (0.5 μM), 7 days; normalized to DMSO = 100

Compound | Normalized Crystal Violet abs. (590 nm) 0.5 μM ceritinib
C[C@@H]1OCC2(CCN(c3cnc(Sc4cccc(NC(=O)c5c(O)nc6n(c5=O)CCCC6)c4Cl)c(N)n3)CC2)[C@@H]1N [compound 45, N-(3-((3-amino-5-((3S,4S)-4-amino-3-methyl-2-oxa-8-azaspiro[4.5]decan-8-yl)pyrazin-2-yl)thio)-2-chlorophenyl)-2-hydroxy-4-oxo-6,7,8,9-tetrahydro-4H-pyrido[1,2-a]pyrimidine-3-carboxamide] | 6.0 +/− 0.16
C[C@@H]1OCC2(CCN(c3cnc(-c4cccc(Cl)c4Cl)c(N)n3)CC2)[C@@H]1N [compound 7, (3S,4S)-8-(6-amino-5-(2,3-dichlorophenyl)pyrazin-2-yl)-3-methyl-2-oxa-8-azaspiro[4.5]decan-4-amine] | 20 +/− 0.3
